The source of these data is PubChem BioAssay AID2685 (National Center for Advancing Translational Sciences (NCATS), 2010).

Each structure is given as a SMILES string. The list shows a part of the results. Further columns of the screen follow, without active or inactive calls. Most of these compounds were active or inconclusive in the main read-out, so they are no random draw. The note in brackets gives the kind of curve behind each potency; many fits are weak.

This assay in a line: qHTS Assay for Lipid Storage Modulators in Drosophila S3 Cells.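 For cell number change: cells counted by Cell Tracker Red CMTPX staining in the red channel.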 The note with it: BODIPY lipid droplet fluorescence, 18-24 h; for cell number change: measured here: cell count max response, cells fed with added oleic acid. The essentials: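 Drosophila S3 cells loaded with oleic acid (400 uM, as added) and compounds at several concentrations; lipid droplets imaged by 488-nm laser-scanning cytometry, 500–530 nm intensity and object ratio to cell channel. Percent activity normalized to 20 uM Triacsin C.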
In general terms: Quantitative high-throughput screening tests each substance at several concentrations.

Where [1] appears, read: measured here: cell number channel AC50, cells fed with added oleic acid.
Where [2] appears, read: measured here: lipid fluorescence (Fed channel) AC50, cells fed with added oleic acid.

Take `COc1ccc(Cl)cc1-c1nc(SCC(=O)NC(C)C)n[nH]1`: the cell number change worked out at 4.03%. The half-maximal activity concentration (AC50) (as a rule, the concentration at which the activity in the assay is half-maximal) under setting [1] was 0.731 µM [falling, single point].
`Cc1ccc2sc(N(CCCN(C)C)C(=O)c3ccc(S(=O)(=O)N4CCCCCC4)cc3)nc2c1C`: the AC50 is, setting by setting: under setting [1], 0.731 µM [falling, full curve]; under setting [2], 0.651 µM [falling, full curve].
Regarding `COCC1CCCCN1C(=O)c1ccc(OC)c(OC2CCN(C(C)C)CC2)c1` (configuration not stated), the cell number change turned out to be 97.4%. Moreover, the AC50 under setting [1] was 20.6 µM [rising, partial curve].
With `CCn1c(SCC(N)=O)nnc1-c1ccc2[nH]c(C)c(C)c2c1`, the cell number change stood at 12%. In addition, the AC50 under setting [2] was 5.17 µM [rising, partial curve].
As to `COC(=O)c1nnn(-c2nonc2N)c1CN1CCc2ccccc21`, the cell number change is -11.3%.
On to `CCc1cccc(NS(=O)(=O)c2csc(C(N)=O)c2)c1`, for which the cell number change is -17.2%.
As to `CCOC(=O)N1CCN(CC(O)COCCC23CC4CC(CC(C4)C2)C3)CC1` (configuration not stated), the cell number change was -0.817%. The AC50 under setting [2] is 0.82 µM [falling, single point].
For the compound `COc1ccc(Cl)cc1NC(=O)CN1CCN(S(=O)(=O)c2ccc(F)cc2)CC1`, the cell number change was 64.5%. Moreover, the AC50 under setting [1] is 18.4 µM [rising, single point].
For the compound `COc1ccc(/C=C/C(=O)NC(=S)NNC(=O)Cc2cccs2)cc1OC`, the AC50 reads like this: under setting [1], 0.517 µM [rising, full curve, poor fit]; under setting [2], 7.31 µM [rising, partial curve, poor fit].
`CCC(C)Sc1ccc(-c2nc3cnccn3c2NC2CCCCC2)cc1` (configuration not stated): the cell number change is -13.9%. The AC50 under setting [1] was 3.26 µM [falling, single point].
Turning to `Cc1nnc(SCC(=O)Nc2ccc(-c3nc4ccccc4s3)cc2)s1`, the cell number change was -4.03%.
With `Cc1ccc(S(=O)(=O)N2CCN(C(=O)CN3CCOCC3)C2C(C)C)cc1` (configuration not stated), the cell number change is 10.2%. Moreover, under setting [2], the AC50 was 2.31 µM [rising, full curve, poor fit].
In the case of `Cc1cccc(N=c2c([N+](=O)[O-])nn(-c3ccc(Cl)cc3)n2O)c1`, the cell number change was -45.6%. The half-maximal activity concentration (AC50) under setting [1] is 16.4 µM [falling, partial curve, poor fit]. Moreover, the AC50 under setting [2] is 32.6 µM [falling, partial curve, poor fit].
For `Cc1ccc(S(=O)(=O)c2c(N)n(Cc3ccco3)c3nc4ccccc4nc23)cc1`, the cell number change is 3.75%.
Take `CC(Sc1nnc2ccccn12)C(=O)Nc1ccc2c(c1)OCCO2` (configuration not stated): the cell number change is -14.2%. In addition, the AC50 under setting [1] is 0.0058 µM [falling, full curve, poor fit].
Consider `COC(=O)C1=C(O)CSC1=Nc1cccc(C(F)(F)F)c1`, for which the cell number change was 2.5%. Also, the AC50 under setting [2] was 6.51 µM [falling, single point].
On to `COc1cc(C)nc(N2CCC(C(=O)NC3CCCCC3)CC2)n1`, for which the AC50 runs as follows: under setting [1], 6.51 µM [rising, single point]; under setting [2], 3.66 µM [rising, single point].
In the case of `CCOc1cc(NC(=S)NCCCN2CCOCC2)c(OCC)cc1NC(=O)c1ccccc1C`, the cell number change is -22.4%. Besides, the AC50 under setting [2] was 11.6 µM [falling, partial curve, poor fit].
Consider `Cc1ccc(NC(=O)CN(C)C(=O)c2ccc(NS(=O)(=O)c3ccc4[nH]c(=O)[nH]c4c3)cc2)cc1`, for which the cell number change was found to be 8.13%. The AC50 under setting [2] was 7.31 µM [rising, partial curve, poor fit].
On to `Cc1ccc(C)c(S(=O)(=O)N2CCC(c3nc4c(nnn4Cc4ccc5c(c4)OCCO5)c(=O)[nH]3)CC2)c1`, for which the cell number change was -19%. Further, under setting [2], the AC50 is 16.4 µM [falling, partial curve].
As to `CCCCN(C(=O)NC(=O)Nc1ccccc1OC)S(C)(=O)=O`, the cell number change was -4.67%. Besides, the AC50 under setting [2] is 0.00461 µM [falling, full curve, poor fit].
`O=C1CCN(S(=O)(=O)c2cccs2)c2ccc(C(F)(F)F)cc2N1`: the cell number change is -5.1%. Besides, the AC50 under setting [2] is 1.84 µM [falling, partial curve].
With `CCC(=O)Nc1ccc(S(=O)(=O)NCc2ccco2)cc1`, the cell number change was -0.666%.
With `O=C(Nc1ccccc1)Nc1nnc(Cc2ccc([N+](=O)[O-])cc2)s1`, the cell number change was -7.28%. Besides, the AC50 under setting [1] is 0.00411 µM [rising, full curve, poor fit]. For the same compound, under setting [2], the AC50 is 11.6 µM [rising, partial curve, poor fit].
As for `COCCN1C(=O)CC(NNC(=O)c2ccc(S(=O)(=O)N3CCCC3)cc2)C1=O` (configuration not stated), the cell number change was -34.5%. Further, the AC50 under setting [1] was 20.6 µM [falling, single point].
In the case of `O=C(CC1(CC(=O)N2CCOCC2)CCCC1)Nc1ccccc1`, the cell number change was -17.5%. Besides, under setting [2], the AC50 is 29.1 µM [falling, single point].
Regarding `Cc1cc(-n2c(C)cc(C(=O)COc3cc(F)ccc3[N+](=O)[O-])c2C)no1`, the AC50 under setting [2] was 5.17 µM [falling, partial curve].
Turning to `O=C(NC1CCCCCC1)c1ccc([N+](=O)[O-])s1`, the cell number change was 1.28%. Moreover, the AC50 under setting [2] was 29.1 µM [rising, single point].
`CC1CCN(C(=O)COC(=O)c2cc3ccccc3cc2O)CC1`: the cell number change was -0.253%. For the same compound, the AC50 under setting [2] was 16.4 µM [falling, single point].
As to `COCC(C)N=C1NN=C(c2ccc(NC(C)=O)cc2)CS1` (configuration not stated), the cell number change amounted to 47.4%. Besides, the AC50 under setting [1] is 11.6 µM [rising, partial curve]. Besides, the concentration at half-maximal activity (AC50) under setting [2] is 3.66 µM [rising, single point].
On to `COC(=O)c1ccccc1NC(=O)Nc1ccc(Br)cn1`, for which the cell number change is -5.1%. Also, the AC50 under setting [1] is 0.0731 µM [rising, full curve, poor fit].
For the compound `COc1ccccc1C1C(C(N)=O)=C(C)Nc2nc(CCCO)nn21` (configuration not stated), the cell number change worked out at 23.3%. For the same compound, under setting [2], the AC50 was 1.64 µM [rising, full curve, poor fit].
Turning to `Cc1cc(C)c2nc(-c3ccccn3)cc(C(=O)Nc3cc(C)on3)c2c1`, the cell number change is -54.8%. Besides, under setting [1], the AC50 was 16.4 µM [falling, partial curve, poor fit].
Regarding `COc1ccc(S(=O)(=O)N(CC(=O)NCc2ccco2)c2ccccc2)cc1OC`, the cell number change stood at 53.6%. Moreover, the AC50 under setting [1] was 16.4 µM [rising, partial curve].
For the compound `CCOC(=O)C(Cc1ccc(NC(=O)/C(=C\c2ccccc2)NC(=O)c2ccccc2)cc1)N1C(=O)c2ccccc2C1=O` (configuration not stated), the cell number change was 13.6%.
As for `Cc1ccc2nc(C(=O)O)c(C(=O)O)nc2c1`, the cell number change was -30.6%. The AC50 under setting [2] was 18.4 µM [falling, single point].
Consider `CCOc1ccc2c(c1)C(C)=CC(C)(C)N2C(=O)Nc1ccccc1`, for which the cell number change worked out at 83.9%. Further, the AC50 under setting [1] was 18.4 µM [rising, partial curve]. Besides, under setting [2], the AC50 is 6.51 µM [falling, single point].
Take `COc1ccc2oc(C(=O)Nc3ccc(S(=O)(=O)N(C)C4CCN(C)CC4)cc3)c(C)c2c1`: the cell number change was 16.4%. Further, the concentration at half-maximal activity (AC50) under setting [2] is 5.8 µM [rising, partial curve].
On to `CCOc1cc(/C=N/NC(=O)CNc2cccc(C)c2)ccc1OC(=O)c1ccccc1`, for which the cell number change is -4.75%. Moreover, under setting [2], the AC50 was 1.84 µM [rising, partial curve, poor fit].
As to `COc1ccccc1CNC(=O)/C=C/c1ccc(S(=O)(=O)N2CCOCC2)cc1`, the cell number change was -1.59%. Further, under setting [2], the AC50 was 29.1 µM [rising, single point].
For the compound `Cn1ncc2c(=O)n(/N=C/c3ccccc3)cnc21`, under setting [2], the AC50 is 9.2 µM [falling, partial curve].
Take `CC(=O)Nc1cccc(NC(=O)c2csc(C)c2)c1`: the cell number change was determined as 4.86%. Further, the concentration at half-maximal activity (AC50) under setting [2] was 3.66 µM [falling, partial curve].
For `O=C(O)CCN1C(=O)CC2(CCCCC2)C1=O`, the cell number change was -12.8%. Further, the AC50 under setting [2] was 0.82 µM [falling, full curve, poor fit].
Regarding `CNc1c(NS(=O)(=O)c2ccc(CC(C)C)cc2)c(=O)oc2ccccc12`, the cell number change was -6.31%. The AC50 under setting [2] was 29.1 µM [rising, single point].
For the compound `COc1ccc(C(=O)CSc2nnc(-c3ccco3)n2CC2CCCO2)cc1` (configuration not stated), the cell number change was -35.6%. The concentration at half-maximal activity (AC50) under setting [1] is 1.84 µM [falling, partial curve, poor fit].
Consider `COCC(C)OC(=O)C(C#N)c1nc2ccccc2nc1N1CCN(Cc2ccccc2)CC1` (configuration not stated), for which the cell number change is -36.6%. The AC50 under setting [1] is 10.3 µM [falling, partial curve, poor fit].
As for `O=C(Nc1ccccc1C(=O)OCc1nnc(-c2ccccc2)o1)c1ccco1`, the cell number change was -21.9%. Also, the AC50 under setting [2] is 1.64 µM [falling, full curve].
Turning to `CC(=O)c1cccc(NC(=O)C(OC(=O)/C=C/c2ccc3c(c2)OCO3)c2ccccc2)c1` (configuration not stated), the cell number change is 17.8%. Under setting [1], the concentration at half-maximal activity (AC50) is 0.0517 µM [rising, full curve, poor fit].
Turning to `N#Cc1ccc(Cl)cc1NC(=O)CNc1cccc(S(=O)(=O)N2CCCC2)c1`, the cell number change came out at 50%. Moreover, the AC50 under setting [1] was 29.1 µM [rising, single point].
With `Cn1c(SCc2c(Cl)cccc2Cl)nc(C(F)(F)F)cc1=O`, the cell number change came to 31.3%. Further, the concentration at half-maximal activity (AC50) under setting [1] is 3.66 µM [rising, full curve, poor fit]. Moreover, under setting [2], the AC50 was 29.1 µM [rising, single point].
For the compound `COc1ccc2[nH]c(C(=O)O)c(NS(=O)(=O)c3ccc(C)c(C)c3)c2c1`, the cell number change is -86.9%. The AC50 under setting [2] is 4.11 µM [falling, single point].
On to `Cn1ncc(Cl)c1C(=O)N1CCN(S(=O)(=O)c2ccc(Cl)s2)CC1`, for which the cell number change was -14.4%. The AC50 under setting [2] was 10.3 µM [rising, partial curve, poor fit].
For `N#Cc1ccc(CSc2nnc(-c3ccccn3)n2-c2ccc(Cl)cc2)cc1`, the cell number change worked out at 24.6%. For the same compound, the AC50 under setting [2] was 0.082 µM [rising, full curve, poor fit].
As to `CC(=O)c1cccc(N(CC(=O)N2CCCCC2)S(C)(=O)=O)c1`, the cell number change was -2.47%. Further, under setting [2], the AC50 was 29.1 µM [falling, single point].
Regarding `CCCCCCC(=O)NC(Nc1ccc(S(N)(=O)=O)cc1)C(Cl)(Cl)Cl` (configuration not stated), the cell number change is -11.6%. In addition, the AC50 under setting [2] was 1.3 µM [falling, single point].
In the case of `COc1cc(C(=S)N2CCCC2)cc(OC)c1OC`, the cell number change is -20.3%. The AC50 under setting [2] is 3.66 µM [falling, single point].
As to `Clc1cccc(CNCC2CCCO2)c1Cl` (configuration not stated), the cell number change was 5.03%. In addition, the AC50 under setting [2] is 6.51 µM [rising, single point].
For the compound `O=C(O)c1ccccc1OC(C(=O)Nc1cc(Cl)cc(Cl)c1)c1ccccc1` (configuration not stated), the cell number change turned out to be 6.41%.
